Some test systems named below: PRCP (human); PRDX2 (human); PRDX3 (human); PRKACB (human); PRKRIR (human); PRMT7 (human); PROCR (human); PRPSAP2 (human); PRRT2 (human); PSCD4 (human); PSG11 (human); PSIP1 (human); PSMA4 (human); PSMD10 (human); PSMD11 (human); PSMD5 (human).
Test in all cases: protein microarray (ProtoArray v5.0), streptavidin-Alexa Fluor 647
Common to all, as to conditions: 3'-biotin; 20 mM Tris (pH 7.5), 5 mM MgCl2, 100 mM KCl, 0.1% Tween-20, A/T-rich and random oligonucleotide blockers; temperature not stated; high values mean tight binding

Protein sequences, listed by entry. Tags and fused reporters are not part of them. Lines headed by an entry give the natural chain unless they say otherwise; changes in a name come on top.
UniProt Q9Y617: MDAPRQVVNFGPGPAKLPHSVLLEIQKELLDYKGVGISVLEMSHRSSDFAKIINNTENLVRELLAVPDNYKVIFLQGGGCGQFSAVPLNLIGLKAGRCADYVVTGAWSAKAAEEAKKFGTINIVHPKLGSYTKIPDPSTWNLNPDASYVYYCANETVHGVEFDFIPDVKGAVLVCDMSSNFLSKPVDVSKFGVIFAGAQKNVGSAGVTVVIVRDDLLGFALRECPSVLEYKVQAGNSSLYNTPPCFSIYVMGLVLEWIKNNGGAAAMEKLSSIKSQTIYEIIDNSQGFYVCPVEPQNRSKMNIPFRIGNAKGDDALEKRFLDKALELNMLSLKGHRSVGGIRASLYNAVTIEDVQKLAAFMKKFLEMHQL

For experiment [1], the system named is PRELI domain-containing protein 2 (human).
A further experiment concerns the target T1, PRRG2 (UniProt O14669).
T1 sequence: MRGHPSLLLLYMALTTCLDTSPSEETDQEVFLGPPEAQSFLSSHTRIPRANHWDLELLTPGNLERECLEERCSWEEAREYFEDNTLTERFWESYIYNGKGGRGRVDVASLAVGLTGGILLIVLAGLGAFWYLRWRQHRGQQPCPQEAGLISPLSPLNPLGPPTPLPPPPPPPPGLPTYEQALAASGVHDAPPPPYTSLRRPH

In another experiment the target is PSAT1 (UniProt Q9Y617).
Another experiment deals with T2, PSCD2 (UniProt Q99418).
T2 sequence: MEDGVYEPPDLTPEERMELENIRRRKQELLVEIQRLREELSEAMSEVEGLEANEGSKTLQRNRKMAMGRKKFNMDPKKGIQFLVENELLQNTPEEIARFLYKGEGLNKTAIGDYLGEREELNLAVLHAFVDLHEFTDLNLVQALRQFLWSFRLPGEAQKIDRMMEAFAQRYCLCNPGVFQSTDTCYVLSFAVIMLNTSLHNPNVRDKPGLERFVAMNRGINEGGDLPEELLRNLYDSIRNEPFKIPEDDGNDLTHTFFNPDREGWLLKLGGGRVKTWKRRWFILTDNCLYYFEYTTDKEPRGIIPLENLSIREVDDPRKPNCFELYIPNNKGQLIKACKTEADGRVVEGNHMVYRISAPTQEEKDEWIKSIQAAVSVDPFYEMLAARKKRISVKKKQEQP

Some of the results follow. For some assays here: Construct or isoform of the protein are uncertain.

As to “GGGGACAGGGGTATGGGGAGGGG [G4-3 biotinylated (CtG)]”, the binding signal is -0.327 z-score in the experiment with PRCP (human); -0.338 z-score in the experiment on PRDX2 (human); -0.332 z-score in the experiment with PRDX3 (human); -0.312 z-score in [1]; -0.303 z-score with PRKACB (human); -0.303 z-score in the experiment with PRKRIR (human). Moreover, the binding signal with PRMT7 (human) is -0.335 z-score; in the experiment on PROCR (human), -0.312 z-score; with PRPSAP2 (human), -0.318 z-score; in the experiment with PRRG2, -0.336 z-score; with PRRT2 (human), -0.324 z-score; with PSAT1, -0.334 z-score. The binding signal with PSCD2 is -0.324 z-score; with PSCD4 (human), -0.309 z-score; in the experiment on PSG11 (human), -0.331 z-score; in the experiment on PSIP1 (human), -0.33 z-score; in the experiment with PSMA4 (human) it was -0.333 z-score; in the experiment on PSMD10 (human) it was -0.327 z-score. The figures for the binding signal with PSMD11 (human) and with PSMD5 (human) were -0.33 z-score and -0.34 z-score, respectively.

The values above are taken from publication PMC5996148.
